Test results taken from article PMC5864757.
Results are given in words; binding and its absence hold for the method and conditions named. Binding seen in cells or lysates may run through a third protein. Some binding calls cover weakened binding; strength is not graded here. Where a sequence is shown, tags or fusion partners need not be part of it. Each block holds one molecule with its values, some of them ahead of it.

The chains behind the UniProt entries cited, without tags or fusion partners.
UniProt Q13485: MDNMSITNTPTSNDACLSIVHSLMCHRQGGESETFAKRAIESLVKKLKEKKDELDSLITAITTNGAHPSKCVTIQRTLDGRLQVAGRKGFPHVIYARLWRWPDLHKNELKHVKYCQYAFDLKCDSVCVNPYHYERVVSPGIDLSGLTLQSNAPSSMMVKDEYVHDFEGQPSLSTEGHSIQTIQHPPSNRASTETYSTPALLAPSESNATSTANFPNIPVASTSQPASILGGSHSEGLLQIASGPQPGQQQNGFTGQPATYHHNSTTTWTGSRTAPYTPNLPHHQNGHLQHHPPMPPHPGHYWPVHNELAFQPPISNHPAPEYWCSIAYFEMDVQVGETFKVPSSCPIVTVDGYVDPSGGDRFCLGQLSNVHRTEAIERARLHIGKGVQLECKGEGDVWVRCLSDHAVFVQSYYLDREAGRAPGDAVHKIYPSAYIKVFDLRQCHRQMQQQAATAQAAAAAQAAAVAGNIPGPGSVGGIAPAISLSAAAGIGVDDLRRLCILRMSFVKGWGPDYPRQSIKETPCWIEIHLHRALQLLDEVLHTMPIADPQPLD

How the values were obtained:
EGFP-WWOX = target: T1, EGFP-WWOX (UniProt Q9NZC7); test: FRET or BRET; time-lapse tri-molecular FRET microscopy (ECFP to EGFP to DsRed-monomer, FRETc) in living DU145 cells transiently transfected with the three constructs and treated with hyaluronan (HA)
T1 sequence: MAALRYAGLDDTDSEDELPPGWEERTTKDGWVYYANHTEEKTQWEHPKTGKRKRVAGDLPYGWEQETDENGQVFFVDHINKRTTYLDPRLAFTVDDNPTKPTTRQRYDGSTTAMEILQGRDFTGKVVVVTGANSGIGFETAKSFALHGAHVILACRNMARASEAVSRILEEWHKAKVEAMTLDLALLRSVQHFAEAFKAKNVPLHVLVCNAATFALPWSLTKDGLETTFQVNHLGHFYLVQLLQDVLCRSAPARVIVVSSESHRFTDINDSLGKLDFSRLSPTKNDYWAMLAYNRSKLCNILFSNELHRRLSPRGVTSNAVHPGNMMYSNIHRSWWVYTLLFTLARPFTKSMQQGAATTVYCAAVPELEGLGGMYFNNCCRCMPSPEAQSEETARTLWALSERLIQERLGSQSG

ECFP-Smad4 [1] = target: ECFP-Smad4 (UniProt Q13485); test: FRET or BRET; time-lapse two-protein FRET microscopy (ECFP donor, excitation 440 nm; EYFP acceptor, 535 nm; FRETc) in living NCI-H1299 cells transfected with ECFP-Smad4 and EYFP-TIAF1 and treated with TGF-β1 (5 ng/ml)
ECFP-Smad4 [2] = target: ECFP-Smad4 (UniProt Q13485); test: FRET or BRET; FRETc measured for cyan to green fluorescence (ECFP to EGFP) in living DU145 cells transfected with ECFP-Smad4, EGFP-WWOX and DsRed-monomer-p53 and treated with HA, time-lapse
ECFP-Smad4 [3] = target: ECFP-Smad4 (UniProt Q13485); test: FRET or BRET; time-lapse tri-molecular FRET microscopy (ECFP to EGFP to DsRed-monomer, FRETc) in living DU145 cells transiently transfected with the three constructs and treated with hyaluronan (HA)

binding (EGFP-WWOX): binds
Molecule: DsRed-monomer p53 (from UniProt P04637 1-393)

binding (ECFP-Smad4 [1]): binds
B1: EYFP-TIAF1 (protein, UniProt O95411 1-115)
chain: MSSPSSPFREQSFLCAAGDAGEESRVQVLKNEVRRGSPVLLGWVEQAYADKCVCGPSAPPAPTPPSLSQRVMCNDLFKVNPFQLQQFRADPSTASLLLCPGGLDHKLNLRGKAWG

binding (ECFP-Smad4 [2]): binds
binding (ECFP-Smad4 [3]): binds
B2: EGFP-WWOX (protein, UniProt Q9NZC7 1-414)
chain: MAALRYAGLDDTDSEDELPPGWEERTTKDGWVYYANHTEEKTQWEHPKTGKRKRVAGDLPYGWEQETDENGQVFFVDHINKRTTYLDPRLAFTVDDNPTKPTTRQRYDGSTTAMEILQGRDFTGKVVVVTGANSGIGFETAKSFALHGAHVILACRNMARASEAVSRILEEWHKAKVEAMTLDLALLRSVQHFAEAFKAKNVPLHVLVCNAATFALPWSLTKDGLETTFQVNHLGHFYLVQLLQDVLCRSAPARVIVVSSESHRFTDINDSLGKLDFSRLSPTKNDYWAMLAYNRSKLCNILFSNELHRRLSPRGVTSNAVHPGNMMYSNIHRSWWVYTLLFTLARPFTKSMQQGAATTVYCAAVPELEGLGGMYFNNCCRCMPSPEAQSEETARTLWALSERLIQERLGSQSG
